Primary screen of a compound library

From ChEMBL document CHEMBL3988442, “University of Dundee, Small-Polar-MMV Screening Library” (2021).

Mtb growth Cornell: 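Whole-cell assay for inhibitors of Mycobacterium tuberculosis growth, labelled Cornell in the record; the read-out is not stated. The concentration is filed as 10 mM, unlikely as a test dose, so the dose is not known. The record gives no direction; compounds strong in two other growth screens of this library score well above the rest, so higher reads as stronger inhibition. Size under these conditions: about 53,000 compounds, about 900 of them at 50% or above in at least one test.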
Mtb heat-shock: 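Assay on Mycobacterium tuberculosis, filed only as a heat shock assay from Cornell; the read-out is not stated. The concentration is filed as 10 mM, unlikely as a test dose, so the dose is not known. The record gives no direction; compounds that gave an IC50 in retests scored well above the rest, so higher reads as stronger inhibition. About 69,000 compounds were tested under these conditions; 1.4% (about 930) showed 50% or more at least once.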

Values are the deposited “Percent Effect”, in %.
The record does not define 0% and 100%; most values in the screen are far below 50% and negative numbers occur (in some assays of this library far below -100).
The compounds are a random part of those screened.

Result for Cc1cccc(CN2CCC3(CC2)NC(=O)C[C@H]3c2cnn(C)c2)n1.O=C(O)C(F)(F)F was Mtb growth Cornell: 35.39%; Mtb heat-shock: -24.08%.
Result for Cc1cnn(CC2CN(Cc3nc(C)c4ccccc4n3)CCO2)c1 (stereo not given) was Mtb heat-shock: 1.649%.
Result for [H][C@@]12COC[C@]1(COCC(=O)N(C)C)CN(Cc1ccoc1)C2 was Mtb growth Cornell: 14.71%; Mtb heat-shock: 2.343%.
Result for CN1CCCC1c1cncc(C(=O)NCc2ccccc2)n1 (stereo not given) was Mtb growth Cornell: 9.724%; Mtb heat-shock: -11.61%.
Result for CC(NC(=O)CCn1cccn1)c1cccs1 (stereo not given) was Mtb growth Cornell: -23.38%; Mtb heat-shock: 20.72%.
Result for Cc1cc(CN2CCCC(c3cc(C(F)(F)F)[nH]n3)C2)no1 (stereo not given) was Mtb growth Cornell: -2.946%; Mtb heat-shock: 5.463%.
Result for Cc1noc(NC(=O)c2ccc(Br)s2)n1 was Mtb growth Cornell: 105.7%; Mtb heat-shock: 103.3%.
Result for CN1CCCCCC1C(=O)N1CCCN(c2ccccc2)CC1 (stereo not given) was Mtb growth Cornell: -11.95%; Mtb heat-shock: -32.52%.
Result for COCCOc1ccc(NC(=O)N2CCCC2c2cc(C)no2)cn1 (stereo not given) was Mtb heat-shock: 11.85%.
Result for COCCCNC(=O)c1c[nH]c2ccc(OC)cc12 was Mtb heat-shock: -2.385%.
Result for CCN(CC1CCCO1)C(=O)NCCNC(=O)c1ccccc1F (stereo not given) was Mtb growth Cornell: -22.63%; Mtb heat-shock: -9.812%.
Result for CCOc1ccc(C2CCCN2C(=O)NCCn2ccnc2)cc1 (stereo not given) was Mtb heat-shock: 1.356%.
Result for O=C(CC1CC1)N1CCn2cc(Cn3cncn3)nc2C1 was Mtb growth Cornell: 9.127%; Mtb heat-shock: -15.49%.
Result for CC(NC(=O)NCCN1CCCCCC1=O)c1ccc(Cl)s1 (stereo not given) was Mtb heat-shock: -19.42%.
Result for CNC(=O)C1Cc2ccccc2CN1CCCc1ccccc1 (stereo not given) was Mtb heat-shock: -42.02%.
Result for Cc1nn(C)cc1C(=O)N1CCCC(c2nccn2Cc2cscn2)C1 (stereo not given) was Mtb growth Cornell: 19.74%; Mtb heat-shock: -9.003%.
Result for CC(C)N(Cc1ccc(C(=O)O)o1)C(C)C.Cl was Mtb heat-shock: -182.8%.
Result for c1ncn(CC2CCCN(Cc3noc(C4CC4)n3)C2)n1 (stereo not given) was Mtb growth Cornell: -9.838%; Mtb heat-shock: -6.065%.
Result for CC(=O)c1ccc(N2CCCC(CO)(Cc3ccccc3C)C2)nc1 (stereo not given) was Mtb growth Cornell: 13.02%; Mtb heat-shock: -8.055%.
Result for COc1ccc(N2CCC(N(C)C(C)C(=O)N(C)C)CC2)cc1 (stereo not given) was Mtb growth Cornell: -14.15%; Mtb heat-shock: -8.682%.
Result for CC(C)(C)C(=O)N1CCCC1c1nc(O)cc(-c2ccccn2)n1 (stereo not given) was Mtb growth Cornell: -5.957%; Mtb heat-shock: -17.9%.
Result for Cc1n[nH]c(C2CN(C(=O)CCOCC(F)(F)F)CCO2)n1 (stereo not given) was Mtb growth Cornell: 16.08%; Mtb heat-shock: 11.39%.
Result for CC/C=C(\C)CN1CCC(CNC(=O)c2ccc(=O)[nH]c2)CC1 was Mtb growth Cornell: -52.91%; Mtb heat-shock: -5.435%.
Result for Cc1cnn(CC2CCCCN2C(=O)c2cccc(C(N)=O)c2)c1 (stereo not given) was Mtb heat-shock: 5.281%.
Result for O=C(CCn1nc(-c2cccs2)oc1=O)Nc1cccc(F)c1 was Mtb growth Cornell: 12.31%; Mtb heat-shock: 5.854%.
Result for O=C(O)C(F)(F)F.[H][C@@]12CCN(C(=O)Cc3cccs3)[C@@]1([H])CC(=O)N2Cc1cccnc1 was Mtb growth Cornell: 6.164%; Mtb heat-shock: -27.42%.

Once more, the final 2:

{"structure": "O=C(CCn1nc(-c2cccs2)oc1=O)Nc1cccc(F)c1", "Mtb growth Cornell": 12.31, "Mtb heat-shock": 5.854}
{"structure": "O=C(O)C(F)(F)F.[H][C@@]12CCN(C(=O)Cc3cccs3)[C@@]1([H])CC(=O)N2Cc1cccnc1", "Mtb growth Cornell": 6.164, "Mtb heat-shock": -27.42}